Measurements as given in patent publication US20070280947A1.
These are yes or no findings as the source states them, for the method shown. Binding seen in cells or lysates may run through a third protein. Some results given as binding are weak or reduced against the parent protein; the word gives no strength.

The chains behind the UniProt entries cited, without tags or fusion partners. Where a name states a change or a piece, a line headed by the entry shows the natural chain unless it says otherwise.
UniProt Q02763: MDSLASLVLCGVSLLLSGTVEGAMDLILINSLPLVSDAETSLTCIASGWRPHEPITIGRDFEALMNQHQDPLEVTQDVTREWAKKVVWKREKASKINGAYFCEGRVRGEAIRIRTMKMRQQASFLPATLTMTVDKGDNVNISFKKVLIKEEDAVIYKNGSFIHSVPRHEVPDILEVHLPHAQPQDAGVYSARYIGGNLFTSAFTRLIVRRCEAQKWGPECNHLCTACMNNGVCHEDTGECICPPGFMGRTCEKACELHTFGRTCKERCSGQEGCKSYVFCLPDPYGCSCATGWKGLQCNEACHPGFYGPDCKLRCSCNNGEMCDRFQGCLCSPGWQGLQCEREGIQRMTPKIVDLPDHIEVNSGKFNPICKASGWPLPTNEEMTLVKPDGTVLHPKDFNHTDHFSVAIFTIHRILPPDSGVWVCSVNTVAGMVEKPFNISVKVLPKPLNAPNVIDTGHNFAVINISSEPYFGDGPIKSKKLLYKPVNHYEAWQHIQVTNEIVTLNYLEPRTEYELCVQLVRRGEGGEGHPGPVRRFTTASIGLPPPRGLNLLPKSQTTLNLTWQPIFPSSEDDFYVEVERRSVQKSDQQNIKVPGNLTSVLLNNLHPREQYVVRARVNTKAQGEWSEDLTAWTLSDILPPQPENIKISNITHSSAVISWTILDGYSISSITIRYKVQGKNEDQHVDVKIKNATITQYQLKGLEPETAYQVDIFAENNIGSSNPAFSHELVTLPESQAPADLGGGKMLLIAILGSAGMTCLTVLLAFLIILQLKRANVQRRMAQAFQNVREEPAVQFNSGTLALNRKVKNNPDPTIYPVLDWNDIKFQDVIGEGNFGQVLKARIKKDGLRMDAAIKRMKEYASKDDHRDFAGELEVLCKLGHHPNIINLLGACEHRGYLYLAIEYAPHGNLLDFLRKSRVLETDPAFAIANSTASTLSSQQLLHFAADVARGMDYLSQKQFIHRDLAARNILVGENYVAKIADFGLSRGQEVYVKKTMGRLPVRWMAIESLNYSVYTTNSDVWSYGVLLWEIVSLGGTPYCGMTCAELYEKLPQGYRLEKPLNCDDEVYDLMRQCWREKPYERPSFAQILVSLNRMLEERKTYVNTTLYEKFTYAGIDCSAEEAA
UniProt P35590: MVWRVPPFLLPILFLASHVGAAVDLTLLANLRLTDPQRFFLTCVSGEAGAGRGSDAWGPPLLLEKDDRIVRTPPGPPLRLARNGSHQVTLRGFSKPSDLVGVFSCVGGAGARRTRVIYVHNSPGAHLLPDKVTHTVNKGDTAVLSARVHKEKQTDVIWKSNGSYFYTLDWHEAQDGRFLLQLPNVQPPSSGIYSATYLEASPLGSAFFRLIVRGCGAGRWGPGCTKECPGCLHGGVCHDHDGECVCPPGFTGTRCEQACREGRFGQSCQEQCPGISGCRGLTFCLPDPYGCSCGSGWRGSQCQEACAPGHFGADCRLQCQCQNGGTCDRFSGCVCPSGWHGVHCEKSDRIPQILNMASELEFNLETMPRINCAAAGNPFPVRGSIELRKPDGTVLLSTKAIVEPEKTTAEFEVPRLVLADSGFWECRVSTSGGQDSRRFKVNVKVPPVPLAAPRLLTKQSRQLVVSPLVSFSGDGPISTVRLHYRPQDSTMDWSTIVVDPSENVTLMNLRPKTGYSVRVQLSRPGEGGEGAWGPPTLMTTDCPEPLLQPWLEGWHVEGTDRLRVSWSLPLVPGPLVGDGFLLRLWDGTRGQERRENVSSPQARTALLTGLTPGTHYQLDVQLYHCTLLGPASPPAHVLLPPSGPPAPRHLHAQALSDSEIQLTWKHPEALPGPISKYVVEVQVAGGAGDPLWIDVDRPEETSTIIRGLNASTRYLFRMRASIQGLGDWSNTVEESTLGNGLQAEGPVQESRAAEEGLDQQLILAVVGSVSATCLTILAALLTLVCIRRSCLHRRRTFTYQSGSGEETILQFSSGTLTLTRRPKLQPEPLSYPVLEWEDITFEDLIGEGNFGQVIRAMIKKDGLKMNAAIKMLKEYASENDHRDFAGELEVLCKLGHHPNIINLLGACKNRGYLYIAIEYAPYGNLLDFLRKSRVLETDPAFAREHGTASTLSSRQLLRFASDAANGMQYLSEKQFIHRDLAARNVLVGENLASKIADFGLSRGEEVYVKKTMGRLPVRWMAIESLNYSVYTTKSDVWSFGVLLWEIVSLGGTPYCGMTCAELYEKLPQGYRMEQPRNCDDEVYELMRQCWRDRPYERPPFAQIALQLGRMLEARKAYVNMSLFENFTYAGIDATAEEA

Key:
[1] = target: Human Tie-2 (human) (UniProt Q02763); experiment: co-immunoprecipitation from HUVECs after DTSSP cross-linking
[2] = target: Human Tie-2 (human) (UniProt Q02763); experiment: summary sentence that refers to the co-immunoprecipitation in Example 2
[3] = target: Tie-1-V5 (human) (UniProt P35590); experiment: co-immunoprecipitation from 293T cells transfected with Tie-1-V5 and Tie-2-Myc, after COMP-Ang-1 stimulation and DTSSP cross-linking of cell surface proteins

| binding [1] | binding [2] | binding [3] | Substance |
| --- | --- | --- | --- |
| binds | binds | – | Human Tie-1 (from UniProt P35590 25-1138) (receptor) |
| – | – | binds | Tie-2-Myc (from UniProt Q02763 23-1124) (receptor) |
